Results are given in words; binding and its absence hold for the method and conditions named. For part of these data: Binding seen in cells or lysates may run through a third protein. Some entries that bind do so weakly or less than the wild type. Sequences can lack the tags named with a protein.
T1: Flag-TRIM11 (UniProt Q96F44)
T1 sequence: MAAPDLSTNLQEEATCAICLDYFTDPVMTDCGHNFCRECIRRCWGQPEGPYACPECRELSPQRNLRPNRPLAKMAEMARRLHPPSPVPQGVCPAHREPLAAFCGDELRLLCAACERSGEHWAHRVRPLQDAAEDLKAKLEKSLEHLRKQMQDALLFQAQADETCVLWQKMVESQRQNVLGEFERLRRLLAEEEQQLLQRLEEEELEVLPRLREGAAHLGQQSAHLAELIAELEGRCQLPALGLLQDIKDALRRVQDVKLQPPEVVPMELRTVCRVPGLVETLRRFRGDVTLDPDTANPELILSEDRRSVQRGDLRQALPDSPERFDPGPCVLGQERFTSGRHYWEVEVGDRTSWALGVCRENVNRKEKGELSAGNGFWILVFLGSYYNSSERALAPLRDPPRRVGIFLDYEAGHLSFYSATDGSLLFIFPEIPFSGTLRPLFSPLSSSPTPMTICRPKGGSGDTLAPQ

Protein sequences, listed by entry. Tags and fused reporters are not part of them. Lines headed by an entry give the natural chain unless they say otherwise; changes in a name come on top. Residues count along the entry.
UniProt P54578: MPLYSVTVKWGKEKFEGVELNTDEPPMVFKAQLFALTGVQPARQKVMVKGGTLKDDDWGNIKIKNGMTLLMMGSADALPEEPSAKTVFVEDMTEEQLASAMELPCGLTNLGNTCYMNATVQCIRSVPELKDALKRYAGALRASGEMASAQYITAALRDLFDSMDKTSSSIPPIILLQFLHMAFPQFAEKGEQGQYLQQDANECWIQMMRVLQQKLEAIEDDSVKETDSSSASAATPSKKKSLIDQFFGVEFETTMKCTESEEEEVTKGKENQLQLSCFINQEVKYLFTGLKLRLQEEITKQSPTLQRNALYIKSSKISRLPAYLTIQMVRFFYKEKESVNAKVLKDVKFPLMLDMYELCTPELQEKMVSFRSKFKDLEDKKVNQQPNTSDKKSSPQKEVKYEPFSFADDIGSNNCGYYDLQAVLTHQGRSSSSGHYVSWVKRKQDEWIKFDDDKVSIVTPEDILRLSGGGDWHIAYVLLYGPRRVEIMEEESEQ
GST-USP: residues 105-483 of P54578
UniProt Q13200: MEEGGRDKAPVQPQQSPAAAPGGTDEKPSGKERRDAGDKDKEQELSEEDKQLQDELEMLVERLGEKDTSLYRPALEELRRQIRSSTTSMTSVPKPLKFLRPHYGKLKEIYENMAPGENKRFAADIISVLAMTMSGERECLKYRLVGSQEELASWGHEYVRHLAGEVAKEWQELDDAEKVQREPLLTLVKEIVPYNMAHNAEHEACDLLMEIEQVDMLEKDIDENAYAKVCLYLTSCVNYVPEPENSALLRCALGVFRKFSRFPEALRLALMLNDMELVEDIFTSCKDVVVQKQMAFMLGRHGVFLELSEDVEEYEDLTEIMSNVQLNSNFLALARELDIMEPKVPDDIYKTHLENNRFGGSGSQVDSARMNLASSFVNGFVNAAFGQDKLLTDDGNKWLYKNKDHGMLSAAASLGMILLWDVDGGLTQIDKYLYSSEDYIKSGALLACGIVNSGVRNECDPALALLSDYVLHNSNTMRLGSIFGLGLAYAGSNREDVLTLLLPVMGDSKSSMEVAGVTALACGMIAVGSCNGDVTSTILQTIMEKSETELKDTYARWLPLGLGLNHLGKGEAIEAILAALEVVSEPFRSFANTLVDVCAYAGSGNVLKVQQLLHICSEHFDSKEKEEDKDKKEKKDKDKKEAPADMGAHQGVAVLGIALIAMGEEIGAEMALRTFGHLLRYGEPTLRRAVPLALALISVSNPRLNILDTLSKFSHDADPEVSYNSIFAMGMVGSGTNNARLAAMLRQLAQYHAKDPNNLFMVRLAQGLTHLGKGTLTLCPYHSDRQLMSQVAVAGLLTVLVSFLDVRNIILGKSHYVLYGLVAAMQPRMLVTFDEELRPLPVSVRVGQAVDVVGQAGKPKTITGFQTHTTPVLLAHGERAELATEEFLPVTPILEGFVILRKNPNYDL


Key:
Flag-TRIM11 = target: T1, Flag-TRIM11; experiment: co-IP; cells lysed in NP-40 lysis buffer; anti-Flag (M2) or anti-HA agarose beads, or antibodies against endogenous proteins with Protein A/G agarose, 4 °C, 4 h; western blot; some panels in control and TRIM11-overexpressing or TRIM28-knockdown HCT116 cells
GST-USP (human) = GST-USP (human) (UniProt P54578); experiment: pull-down; in vitro; purified USP14 or Flag-TRIM11 incubated with GST proteins bound to glutathione beads (1 or 2 μg each protein), 4 °C, 4 h; washed four times with NP-40 lysis buffer; western blot; both purified
[1] = target: endogenous USP14 (ubiquitin-specific protease 14) (human (endogenous in HCT116)) (UniProt P54578); experiment: co-IP; cells lysed in NP-40 lysis buffer; anti-Flag (M2) or anti-HA agarose beads, or antibodies against endogenous proteins with Protein A/G agarose, 4 °C, 4 h; western blot; some panels in control and TRIM11-overexpressing or TRIM28-knockdown HCT116 cells

Row | binding (Flag-TRIM11) | binding (GST-USP (human)) | binding [1] | Molecule
1 | binds | – | – | endogenous PSMD2 (from UniProt Q13200 1-908)
2 | – | no binding | binds | Flag-TRIM11 (protein, UniProt Q96F44 1-468) MAAPDLSTNLQEEATCAICLDYFTDPVMTDCGHNFCRECIRRCWGQPEGPYACPECRELSPQRNLRPNRPLAKMAEMARRLHPPSPVPQGVCPAHREPLAAFCGDELRLLCAACERSGEHWAHRVRPLQDAAEDLKAKLEKSLEHLRKQMQDALLFQAQADETCVLWQKMVESQRQNVLGEFERLRRLLAEEEQQLLQRLEEEELEVLPRLREGAAHLGQQSAHLAELIAELEGRCQLPALGLLQDIKDALRRVQDVKLQPPEVVPMELRTVCRVPGLVETLRRFRGDVTLDPDTANPELILSEDRRSVQRGDLRQALPDSPERFDPGPCVLGQERFTSGRHYWEVEVGDRTSWALGVCRENVNRKEKGELSAGNGFWILVFLGSYYNSSERALAPLRDPPRRVGIFLDYEAGHLSFYSATDGSLLFIFPEIPFSGTLRPLFSPLSSSPTPMTICRPKGGSGDTLAPQ
